Experimental data as given in patent US7888090B2, “Mutants of O6-alkylguanine-DNA alkyltransferase” (Ecole Polytechnique Federale de Lausanne, priority 2004, dated 2011).
Changes are numbered by the printed parent chain. Some compounds share one wording; it may come from a single statement.

B1: Gly131Lys, Gly132Thr, Met134Leu, Arg135Ser, Asn157Gly, Ser159Glu: hAGT mutant with the listed mutations, selected by phage display (protein, UniProt P16455 1-207, looked up, variant G131K G132T M134L R135S N157G S159E)
Methylated-DNA--protein-cystei …: MDKDCEMKRTTLDSPLGKLELSGCEQGLHEIKLLGKGTSAADAVEVPAPAAVLGGPEPLMQCTAWLNAYFHQPEAIEEFPVPALHHPVFQQESFTRQVLWKLLKVVKFGEVISYQQLAALAGNPKAARAVKTALSGNPVPILIPCHRVVCSSGAVGGYEGGLAVKEWLLAHEGHRLGKPGLGGSSGLAGAWLKGAGATSGSPPAGRN
B2: Gln115Ser, Gln116His, Cys150Asn, Ser151Ile, Ser152Asn, Asn157Gly, Ser159Glu: hAGT mutant with the listed mutations, selected by phage display (protein, UniProt P16455 1-207, looked up, variant Q115S Q116H C150N S151I S152N N157G S159E)
Methylated-DNA--protein-cystei …: B1 Methylated-DNA--protein-cystei … with Q115S, Q116H, K131G, T132G, L134M, S135R, C150N, S151I, S152N
B3: AGTM: AGT mutant Cys62Ala, Gln115Ser, Gln116His, Lys125Ala, Ala127Thr, Arg128Ala, Gly131Lys, Gly132Thr, Met134Leu, Arg135Ser, Cys150Asn, Ser151Ile, Ser152Asn, Asn157Gly, Ser159Glu, truncated after … (protein, UniProt P16455 1-207, looked up, variant C62A Q115S Q116H K125A A127T R128A G131K G132T M134L R135S C150N S151I S152N N157G S159E del183-207)
Methylated-DNA--protein-cystei …: MDKDCEMKRTTLDSPLGKLELSGCEQGLHEIKLLGKGTSAADAVEVPAPAAVLGGPEPLMQATAWLNAYFHQPEAIEEFPVPALHHPVFQQESFTRQVLWKLLKVVKFGEVISYSHLAALAGNPAATAAVKTALSGNPVPILIPCHRVVNINGAVGGYEGGLAVKEWLLAHEGHRLGKPGLG
modifications: His tag
B4: Wild type hAGT: wild type human O^6-alkylguanine-DNA alkyltransferase (SEQ ID NO:1); GST-hAGT is its GST fusion (protein, listed as Homo sapiens)
chain: B1 Methylated-DNA--protein-cystei … with K131G, T132G, L134M, S135R, G157N, E159S
B5: Cys62Ala, Lys125Ala, Ala127Thr, Arg128Ala, Asn157Gly, Ser159Glu, truncated after Gly182: particularly preferred hAGT mutant with the listed mutations (protein, UniProt P16455 1-207, looked up, variant C62A K125A A127T R128A N157G S159E del183-207)
Methylated-DNA--protein-cystei …: B3 Methylated-DNA--protein-cystei … with S115Q, H116Q, K131G, T132G, L134M, S135R, N150C, I151S, N152S
B6: Cys62Ala, Gln115Ser, Gln116His, Lys125Ala, Ala127Thr, Arg128Ala, Cys150Asn, Ser151Ile, Ser152Asn, Asn157Gly, Ser159Glu, truncated after Gly182: particularly preferred hAGT mutant with the listed … (protein, UniProt P16455 1-207, looked up, variant C62A Q115S Q116H K125A A127T R128A C150N S151I S152N N157G S159E del183-207)
Methylated-DNA--protein-cystei …: B3 Methylated-DNA--protein-cystei … with K131G, T132G, L134M, S135R
B7: Lys125Ala, Ala127Thr, Arg128Ala, Asn157Gly, Ser159Glu: hAGT mutant with the listed mutations, expressed as GST fusion (protein, UniProt P16455 1-207, looked up, variant K125A A127T R128A N157G S159E)
Methylated-DNA--protein-cystei …: B1 Methylated-DNA--protein-cystei … with K125A, A127T, R128A, K131G, T132G, L134M, S135R
modifications: GST fusion
B8: Cys62Ala, Lys125Ala, Ala127Thr, Arg128Ala, Asn157Gly, Ser159Glu: hAGT mutant with the listed mutations (protein, UniProt P16455 1-207, looked up, variant C62A K125A A127T R128A N157G S159E)
Methylated-DNA--protein-cystei …: B1 Methylated-DNA--protein-cystei … with C62A, K125A, A127T, R128A, K131G, T132G, L134M, S135R
B9: truncated PGEG-hAGT: PGEG-hAGT (Asn157Gly, Ser159Glu) truncated after codon 182 (protein, UniProt P16455 1-207, looked up, variant N157G S159E del183-207)
Methylated-DNA--protein-cystei …: MDKDCEMKRTTLDSPLGKLELSGCEQGLHEIKLLGKGTSAADAVEVPAPAAVLGGPEPLMQCTAWLNAYFHQPEAIEEFPVPALHHPVFQQESFTRQVLWKLLKVVKFGEVISYQQLAALAGNPKAARAVGGAMRGNPVPILIPCHRVVCSSGAVGGYEGGLAVKEWLLAHEGHRLGKPGLG

How the values were obtained:
[1] = Expression yield of soluble GST-AGT fusion protein; set-up: species or system E. coli; details: for yield of soluble GST fusion protein: E. coli
Description: Expression yield is measured in E. coli or in any other of the standard production cells for genetically modified proteins, e.g. yeast, or preferably insect cells, CHO cells or HeLa cells. For quantifying expression yield, AGT fusion proteins may be chosen such that the fusion partner allows easy purification and quantification. For example, expression yield in E. coli is determined by measuring and comparing the yield of soluble and insoluble GST-wild type AGT fusion protein and GST-mutant AGT fusion protein from parallel E. coli expression cultures. Samples of the soluble fractions and insoluble fractions (i.e. the inclusion bodies) after cell lysis are subjected to SDS-PAGE, and the band staining intensities of the corresponding AGT fusion proteins are compared. Soluble protein is quantified after purification of the fusion protein from cell extracts by affinity chromatography (e.g. for GST-AGT fusion proteins by glutathione sepharose) by subjecting the purified fractions to a protein concentration assay (Bradford, Anal Biochem 72:248-54, 1976). The expression yield of similar proteins in the soluble fraction (difference in point mutations) can be used as a measure for protein stability in the unpurified as well as the purified state (Ohage et al., J Mol Biol 291:1119-1128, 1999; Wirtz et al., Protein Sci 8: 2245-50, 1999). Therefore, this is taken as a measure of folding stability and aggregation tendency.
Protein expression from this vector is carried out in E. coli strain BL21. An exponentially growing culture is induced with 0.5 mM IPTG, and the expression is carried out for 3.5 h at 24° C.
Purification: The harvested cells are resuspended in a buffer containing 50 mM phosphate, 0.5 M NaCl, 1 mM DTT, supplemented with 1 mM PMSF and 2 μg/ml aprotinin, and disrupted by lysozyme and sonification. The cell debris are separated by centrifugation at 40000×g. The extract is applied to pre-equilibrated glutathione sepharose (Amersham) which is then washed with 20 bed volumes (50 mM phosphate, 0.5 M NaCl, 1 mM DTT). The mutated GST-AGT fusion protein is eluted with 10 mM reduced glutathione in 50 mM Tris·HCl pH 7.9. The purified protein is dialyzed against 50 mM HEPES pH 7.2; 1 mM DTT; 30% glycerol and then stored at −80° C.
Determination of protein yield: Purity and relative amounts of the GST-AGT fusion proteins are compared by running samples on SDS-PAGE. UV spectra of the pure fractions are recorded using a Perkin Elmer Lambda 10. For protein samples containing no significant amount of DNA, the extinction at 280 nm as a measure of protein content is compared to that of wild type hAGT or PGEG-hAGT that were purified under the same conditions.

[2] = Periplasmic expression / stability under oxidizing conditions; set-up: species or system E. coli; details: for yield of active AGT mutant from expression in the periplasm: E. coli, compared to PGEG-hAGT
Description: The activities towards AGT substrates are measured after purification without addition of reducing agents such as dithiothreitol or beta-mercaptoethanol. Alternatively, the activities of mutant AGT and wild type human are compared after their export into cellular compartments with oxidising redox potential (e.g. the periplasm of E. coli due to their fusion to appropriate signal sequences. Activity towards AGT substrates under reducing and oxidising conditions is compared by performing the reactions in the presence or absence of reducing agents such as dithiothreitol or beta-mercaptoethanol.
The mutant AGT gene of Example 1 is amplified and cloned as described in Example 1 with the oligonucleotides SEQ ID NO:3, SEQ ID NO:10 and SEQ ID NO:4, SEQ ID NO:9 causing the further mutation Cys62Ala in the gene upon their incorporation by PCR. Protein expression, purification and determination of yield is carried out as described in Example 1. The mutant gene is PCR amplified with the primers SEQ ID NO:11, SEQ ID NO:12 that contain SfiI restriction sites to subclone the gene in fusion to the g3 protein of filamentous phage in the vector pAK100 (Krebber et al., J Immunol Methods 201:35-55, 1997). […] The supernatant is directly subjected to quantification of protein yield via SDS-PAGE and activity assays as described in Example 1.
Stability under oxidizing conditions: The mutant gene is PCR amplified with the primers SEQ ID NO:11 and SEQ ID NO:28 to subclone the gene into pAK100, as described in Example 2. […] To compare the reactivity of […] (Juillerat et al., Chem Biol 10:313-317, 2003) and the mutant, samples are incubated with 1 µM BG-Bt for 50 min, quenched with SDS-Laemmli buffer and analyzed by western blotting using neutravidin peroxidase conjugate (Pierce) or a monoclonal mouse anti-FLAG IgG antibody (M2, Sigma) and a secondary anti-mouse-IgG::HRP conjugate, and Renaissance reagent plus (NEN). […] The anti-FLAG IgG antibody is used to estimate the total amount of soluble AGT protein, whereas neutravidin quantifies the reactive portion of it. […]

[3] = tested on: CHO-cells deficient in endogenous AGT; assay: In vivo localization by confocal microscopy; type: cell-based; details: for localization of fluorescently labeled AGT: CHO cells

Molecule | yield of soluble GST fusion protein ([1]; compared to PGEG-hAGT) | localization of fluorescently labeled AGT [3] | other results
B1 | at least two times higher |  | 
B2 | at least two times higher |  | yield of active AGT mutant from expression in the periplasm [2]: at least two times higher
B3 |  | distribution throughout the cytoplasm | active protein from periplasmic expression ([2]; compared to PGEA-hAGT, normalized to protein yield): at least tenfold more; expression rate ([1]; compared to the mutants of Examples 1 through 5): further increased at least twofold
B4 |  |  | subcellular localisation ([3]; AGT-deficient HeLa cells or CHO cells): preferential localisation in the nucleus, and only marginal localisation in the cytoplasm
B5 |  | distribution throughout the cytoplasm | 
B6 |  | distribution throughout the cytoplasm | 
B7 | at least three times more soluble protein | distributed throughout the cytoplasm, no preferential nuclear localization can be detected | 
B8 |  |  | yield of active AGT mutant from expression in the periplasm [2]: at least three times higher; yield of soluble GST fusion protein ([1]; compared to mutant of Example 1): at least two times higher
B9 | at least two times higher |  | 
